# According to the supplement of paper PMC6411743:
# The chains behind the UniProt entries cited, without tags or fusion partners. Where a name states a change or a piece, a line headed by the entry shows the natural chain unless it says otherwise.
# UniProt Q9Y4K3: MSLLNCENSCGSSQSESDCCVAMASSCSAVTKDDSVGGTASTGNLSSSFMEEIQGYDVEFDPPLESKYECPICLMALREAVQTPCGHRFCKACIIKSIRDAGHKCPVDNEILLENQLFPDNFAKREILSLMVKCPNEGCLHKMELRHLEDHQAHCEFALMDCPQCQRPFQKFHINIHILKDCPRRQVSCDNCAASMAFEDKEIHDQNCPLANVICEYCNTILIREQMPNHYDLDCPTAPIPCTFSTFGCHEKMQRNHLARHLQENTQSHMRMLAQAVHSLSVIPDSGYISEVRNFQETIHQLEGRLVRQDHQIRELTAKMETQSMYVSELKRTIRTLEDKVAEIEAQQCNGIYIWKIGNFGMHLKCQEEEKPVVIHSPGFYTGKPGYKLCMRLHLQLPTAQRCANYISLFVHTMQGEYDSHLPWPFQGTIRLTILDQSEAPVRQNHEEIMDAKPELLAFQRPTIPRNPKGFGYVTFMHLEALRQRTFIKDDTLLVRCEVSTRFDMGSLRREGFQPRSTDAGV
# UniProt Q9Y6W3: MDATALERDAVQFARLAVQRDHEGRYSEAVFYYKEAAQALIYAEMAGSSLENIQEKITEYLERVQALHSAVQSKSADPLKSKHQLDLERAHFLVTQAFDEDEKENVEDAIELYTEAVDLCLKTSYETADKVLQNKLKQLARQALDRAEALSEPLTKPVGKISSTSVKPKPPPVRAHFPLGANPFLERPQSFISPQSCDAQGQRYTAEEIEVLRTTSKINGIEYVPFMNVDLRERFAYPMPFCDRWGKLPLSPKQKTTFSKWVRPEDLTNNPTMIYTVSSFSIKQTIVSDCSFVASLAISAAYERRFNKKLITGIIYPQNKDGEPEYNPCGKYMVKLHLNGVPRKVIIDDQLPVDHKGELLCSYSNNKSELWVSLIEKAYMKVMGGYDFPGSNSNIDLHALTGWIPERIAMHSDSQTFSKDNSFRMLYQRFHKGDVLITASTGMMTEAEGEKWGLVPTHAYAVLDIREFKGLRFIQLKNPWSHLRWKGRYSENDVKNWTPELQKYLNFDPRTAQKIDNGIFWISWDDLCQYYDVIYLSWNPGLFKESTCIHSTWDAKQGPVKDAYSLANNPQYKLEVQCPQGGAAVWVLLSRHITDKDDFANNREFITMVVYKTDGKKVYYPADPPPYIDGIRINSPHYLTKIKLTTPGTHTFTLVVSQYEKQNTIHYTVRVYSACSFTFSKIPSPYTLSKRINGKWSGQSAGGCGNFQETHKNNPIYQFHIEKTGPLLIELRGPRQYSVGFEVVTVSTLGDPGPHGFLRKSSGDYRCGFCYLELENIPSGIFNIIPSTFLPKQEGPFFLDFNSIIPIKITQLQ
# UniProt Q9Y5B6: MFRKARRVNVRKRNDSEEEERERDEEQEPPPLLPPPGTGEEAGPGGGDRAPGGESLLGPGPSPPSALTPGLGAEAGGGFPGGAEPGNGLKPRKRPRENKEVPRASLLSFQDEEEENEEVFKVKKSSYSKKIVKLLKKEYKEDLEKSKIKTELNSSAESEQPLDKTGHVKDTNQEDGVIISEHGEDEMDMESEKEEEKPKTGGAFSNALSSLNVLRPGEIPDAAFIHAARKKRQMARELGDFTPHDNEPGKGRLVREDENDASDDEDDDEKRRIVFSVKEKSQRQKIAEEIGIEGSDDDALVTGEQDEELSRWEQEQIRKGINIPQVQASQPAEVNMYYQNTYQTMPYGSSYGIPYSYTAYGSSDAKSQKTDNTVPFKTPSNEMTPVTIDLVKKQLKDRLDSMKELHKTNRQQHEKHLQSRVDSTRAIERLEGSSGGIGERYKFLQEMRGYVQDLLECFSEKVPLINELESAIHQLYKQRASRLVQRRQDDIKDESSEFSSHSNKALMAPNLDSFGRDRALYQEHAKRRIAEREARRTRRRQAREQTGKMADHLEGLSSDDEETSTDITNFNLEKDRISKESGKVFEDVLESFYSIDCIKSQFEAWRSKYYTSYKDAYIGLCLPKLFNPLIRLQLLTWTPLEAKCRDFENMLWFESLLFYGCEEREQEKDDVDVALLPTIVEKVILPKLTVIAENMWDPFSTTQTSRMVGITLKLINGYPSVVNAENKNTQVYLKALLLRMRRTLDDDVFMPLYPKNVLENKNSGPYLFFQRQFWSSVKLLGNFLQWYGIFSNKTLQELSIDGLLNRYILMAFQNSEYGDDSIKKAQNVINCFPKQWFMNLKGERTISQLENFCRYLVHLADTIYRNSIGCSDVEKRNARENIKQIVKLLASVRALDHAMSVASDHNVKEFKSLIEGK
# UniProt Q9Y316: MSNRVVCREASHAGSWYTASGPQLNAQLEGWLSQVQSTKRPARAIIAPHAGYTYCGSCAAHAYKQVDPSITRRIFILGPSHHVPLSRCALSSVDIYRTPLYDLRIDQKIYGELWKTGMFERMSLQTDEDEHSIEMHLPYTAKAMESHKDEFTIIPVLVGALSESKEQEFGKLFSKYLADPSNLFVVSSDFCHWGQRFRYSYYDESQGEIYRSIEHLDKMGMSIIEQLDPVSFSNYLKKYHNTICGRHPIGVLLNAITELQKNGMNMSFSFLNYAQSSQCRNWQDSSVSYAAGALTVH
# UniProt Q9Y3D8, whole entry: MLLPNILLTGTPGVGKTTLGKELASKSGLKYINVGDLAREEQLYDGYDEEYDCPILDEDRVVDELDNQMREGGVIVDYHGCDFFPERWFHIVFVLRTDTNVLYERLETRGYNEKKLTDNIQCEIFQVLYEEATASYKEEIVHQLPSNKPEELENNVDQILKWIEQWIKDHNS
# UniProt Q9Y6Y8: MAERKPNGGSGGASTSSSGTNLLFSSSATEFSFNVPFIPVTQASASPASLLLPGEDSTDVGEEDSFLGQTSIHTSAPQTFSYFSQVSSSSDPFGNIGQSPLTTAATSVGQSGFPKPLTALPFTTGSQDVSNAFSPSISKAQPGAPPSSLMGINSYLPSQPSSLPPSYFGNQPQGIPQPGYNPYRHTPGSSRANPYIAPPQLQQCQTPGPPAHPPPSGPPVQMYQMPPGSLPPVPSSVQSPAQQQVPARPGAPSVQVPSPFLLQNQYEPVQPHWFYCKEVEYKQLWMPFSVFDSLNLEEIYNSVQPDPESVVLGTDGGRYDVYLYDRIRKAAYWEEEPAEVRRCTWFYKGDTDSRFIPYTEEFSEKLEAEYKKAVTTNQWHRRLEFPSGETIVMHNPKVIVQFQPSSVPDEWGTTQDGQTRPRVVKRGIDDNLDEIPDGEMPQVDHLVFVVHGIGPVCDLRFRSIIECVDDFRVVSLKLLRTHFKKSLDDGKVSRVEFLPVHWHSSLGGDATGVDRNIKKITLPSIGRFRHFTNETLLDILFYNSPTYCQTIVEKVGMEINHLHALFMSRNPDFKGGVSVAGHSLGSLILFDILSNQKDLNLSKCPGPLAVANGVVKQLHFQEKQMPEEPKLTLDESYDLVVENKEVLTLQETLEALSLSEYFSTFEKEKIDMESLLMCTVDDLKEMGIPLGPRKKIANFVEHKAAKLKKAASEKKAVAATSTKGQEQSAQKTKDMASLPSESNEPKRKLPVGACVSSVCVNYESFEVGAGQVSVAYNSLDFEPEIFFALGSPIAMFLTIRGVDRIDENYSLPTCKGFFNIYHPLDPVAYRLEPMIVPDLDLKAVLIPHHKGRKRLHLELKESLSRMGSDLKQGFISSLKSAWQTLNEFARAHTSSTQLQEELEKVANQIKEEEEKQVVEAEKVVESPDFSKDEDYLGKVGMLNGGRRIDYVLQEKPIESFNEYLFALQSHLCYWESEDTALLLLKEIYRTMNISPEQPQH
# UniProt Q9Y2X9: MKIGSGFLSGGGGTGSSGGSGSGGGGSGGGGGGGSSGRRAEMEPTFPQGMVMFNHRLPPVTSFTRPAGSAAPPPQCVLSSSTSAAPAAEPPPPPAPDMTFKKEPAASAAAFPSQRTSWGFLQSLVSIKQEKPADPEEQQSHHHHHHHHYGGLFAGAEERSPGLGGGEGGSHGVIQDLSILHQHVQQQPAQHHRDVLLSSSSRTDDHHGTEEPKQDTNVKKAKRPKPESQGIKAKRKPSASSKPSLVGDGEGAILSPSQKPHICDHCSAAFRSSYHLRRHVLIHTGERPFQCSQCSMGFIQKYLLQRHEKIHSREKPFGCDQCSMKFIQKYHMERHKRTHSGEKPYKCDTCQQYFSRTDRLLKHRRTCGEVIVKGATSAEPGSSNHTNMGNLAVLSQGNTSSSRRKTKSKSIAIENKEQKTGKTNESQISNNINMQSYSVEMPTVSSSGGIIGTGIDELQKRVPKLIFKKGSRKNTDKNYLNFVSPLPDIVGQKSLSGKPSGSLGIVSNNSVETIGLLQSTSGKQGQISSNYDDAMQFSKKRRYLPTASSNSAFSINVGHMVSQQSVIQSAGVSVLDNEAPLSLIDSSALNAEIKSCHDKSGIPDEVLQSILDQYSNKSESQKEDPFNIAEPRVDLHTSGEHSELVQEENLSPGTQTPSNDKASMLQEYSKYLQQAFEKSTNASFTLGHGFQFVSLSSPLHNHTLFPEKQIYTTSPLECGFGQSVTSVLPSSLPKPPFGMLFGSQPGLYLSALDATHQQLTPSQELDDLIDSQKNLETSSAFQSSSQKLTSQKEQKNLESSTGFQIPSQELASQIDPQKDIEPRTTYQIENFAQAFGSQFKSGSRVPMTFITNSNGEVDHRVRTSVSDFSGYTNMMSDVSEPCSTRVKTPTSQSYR
# UniProt Q9Y5X2: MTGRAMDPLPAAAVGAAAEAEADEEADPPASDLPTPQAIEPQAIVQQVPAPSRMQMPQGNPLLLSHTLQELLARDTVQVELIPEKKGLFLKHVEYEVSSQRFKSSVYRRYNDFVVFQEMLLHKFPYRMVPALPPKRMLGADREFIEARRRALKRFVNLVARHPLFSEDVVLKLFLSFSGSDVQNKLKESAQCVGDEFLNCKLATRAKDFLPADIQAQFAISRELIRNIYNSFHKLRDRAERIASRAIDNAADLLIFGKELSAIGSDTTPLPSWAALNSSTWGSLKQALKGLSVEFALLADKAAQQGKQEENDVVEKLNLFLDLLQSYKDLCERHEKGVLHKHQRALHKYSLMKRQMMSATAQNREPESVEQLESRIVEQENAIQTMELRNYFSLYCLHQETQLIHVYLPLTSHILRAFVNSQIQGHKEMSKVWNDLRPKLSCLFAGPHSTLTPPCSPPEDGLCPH
# UniProt Q9Y5V0: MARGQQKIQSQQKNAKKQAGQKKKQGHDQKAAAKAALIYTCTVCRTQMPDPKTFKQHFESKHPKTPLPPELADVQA
# UniProt Q9Y3E7, whole entry: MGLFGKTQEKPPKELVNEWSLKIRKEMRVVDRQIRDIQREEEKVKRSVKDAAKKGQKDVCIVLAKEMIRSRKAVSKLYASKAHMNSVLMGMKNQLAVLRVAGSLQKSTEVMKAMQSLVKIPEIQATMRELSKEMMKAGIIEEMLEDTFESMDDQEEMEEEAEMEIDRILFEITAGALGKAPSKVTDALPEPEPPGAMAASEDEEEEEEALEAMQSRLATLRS
# UniProt Q9Y5T5, whole entry, looked up: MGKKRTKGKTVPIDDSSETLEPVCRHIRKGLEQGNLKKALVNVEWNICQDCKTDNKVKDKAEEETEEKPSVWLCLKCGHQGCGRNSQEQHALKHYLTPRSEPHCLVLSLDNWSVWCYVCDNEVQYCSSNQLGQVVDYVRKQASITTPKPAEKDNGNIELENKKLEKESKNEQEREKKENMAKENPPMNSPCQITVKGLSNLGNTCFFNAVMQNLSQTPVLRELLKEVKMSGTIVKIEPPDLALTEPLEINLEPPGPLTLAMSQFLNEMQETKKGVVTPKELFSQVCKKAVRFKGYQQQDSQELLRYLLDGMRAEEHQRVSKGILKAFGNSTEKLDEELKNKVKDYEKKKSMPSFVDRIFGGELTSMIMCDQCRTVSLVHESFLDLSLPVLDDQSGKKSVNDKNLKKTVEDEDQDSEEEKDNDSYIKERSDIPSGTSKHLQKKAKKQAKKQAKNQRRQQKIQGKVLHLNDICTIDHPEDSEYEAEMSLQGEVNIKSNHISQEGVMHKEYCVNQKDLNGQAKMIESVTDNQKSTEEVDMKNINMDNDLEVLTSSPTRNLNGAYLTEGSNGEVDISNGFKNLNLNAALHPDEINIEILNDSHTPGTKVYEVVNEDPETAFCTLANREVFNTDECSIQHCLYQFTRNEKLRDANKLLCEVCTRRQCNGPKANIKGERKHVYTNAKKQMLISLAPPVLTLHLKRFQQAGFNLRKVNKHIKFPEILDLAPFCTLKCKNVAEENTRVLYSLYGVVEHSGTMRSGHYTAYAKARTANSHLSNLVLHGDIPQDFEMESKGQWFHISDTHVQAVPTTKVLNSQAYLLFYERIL
# UniProt Q9Y639: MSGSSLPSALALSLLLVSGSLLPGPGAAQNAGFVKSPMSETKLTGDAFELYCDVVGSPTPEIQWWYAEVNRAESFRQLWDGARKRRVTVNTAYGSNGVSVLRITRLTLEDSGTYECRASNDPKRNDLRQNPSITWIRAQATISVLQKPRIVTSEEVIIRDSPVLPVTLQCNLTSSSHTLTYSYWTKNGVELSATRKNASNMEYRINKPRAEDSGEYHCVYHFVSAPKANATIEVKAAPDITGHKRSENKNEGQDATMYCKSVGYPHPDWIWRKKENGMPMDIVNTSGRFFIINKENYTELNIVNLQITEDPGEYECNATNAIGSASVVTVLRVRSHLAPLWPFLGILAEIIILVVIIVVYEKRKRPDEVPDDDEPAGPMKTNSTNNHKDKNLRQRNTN
# ± gives the standard deviation of the averaged measurements. The list shows a part of the results, in another mix than the full data. Small differences around the control level are noise.
# Compound: Nc1ncnc2c1ncn2[C@@H]1O[C@H](COP(=O)(O)OP(=O)(O)OP(=O)(O)O)[C@@H](O)[C@H]1O [adenosine triphosphate]
# Experiment: NP40-soluble protein abundance relative to vehicle (solubility fold change) (ratio); higher = more soluble protein in presence of ATP
# Summary of the method: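 Eight concentrations, 0.1 to 10 mM, were tested on Jurkat crude lysate for 10 min at room temperature and then 3 min at 37 °C, in three independent experiments. The lysate was solubilised with 0.8% NP40 and benzonase, ultracentrifuged, and the supernatant TMT-labelled for LC-MS/MS. Each value is the fold change against the detergent-processed vehicle in its own replicate, from vsn-normalised intensities.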
target,measurement,setting,value
MRPS23 (UniProt Q9Y3D9),NP40-soluble protein abundance,concentration: 0.1mM,0.913 ± 0.16
same,NP40-soluble protein abundance,concentration: 0.5mM,0.858 ± 0.13
GMPPB (UniProt Q9Y5P6),NP40-soluble protein abundance,concentration: 0.1mM,1.01 ± 0.073
same,NP40-soluble protein abundance,concentration: 0.5mM,0.99 ± 0.069
TRAF6 (UniProt Q9Y4K3),NP40-soluble protein abundance,concentration: 0.1mM,1.1 ± 0.16
same,NP40-soluble protein abundance,concentration: 0.5mM,1.2 ± 0.26
MYH15 (UniProt Q9Y2K3),NP40-soluble protein abundance,concentration: 0.1mM,1 ± 0.065
same,NP40-soluble protein abundance,concentration: 0.5mM,1.05 ± 0.012
CAPN7 (UniProt Q9Y6W3),NP40-soluble protein abundance,concentration: 0.1mM,1.07 ± 0.055
same,NP40-soluble protein abundance,concentration: 0.5mM,1.06 ± 0.084
UniProt Q9Y5B6 and related entries,NP40-soluble protein abundance,concentration: 0.1mM,0.929 ± 0.032
same,NP40-soluble protein abundance,concentration: 0.5mM,1.03 ± 0.031
UniProt Q9Y316 and related entries,NP40-soluble protein abundance,concentration: 0.1mM,1.06 ± 0.11
same,NP40-soluble protein abundance,concentration: 0.5mM,1.01 ± 0.14
WASF2 (UniProt Q9Y6W5),NP40-soluble protein abundance,concentration: 0.1mM,0.972 ± 0.048
same,NP40-soluble protein abundance,concentration: 0.5mM,0.963 ± 0.077
UniProt Q9Y3D8 and related entries,NP40-soluble protein abundance,concentration: 0.1mM,1.07 ± 0.062
same,NP40-soluble protein abundance,concentration: 0.5mM,0.983 ± 0.12
KPTN (UniProt Q9Y664),NP40-soluble protein abundance,concentration: 0.1mM,1.01 ± 0.051
same,NP40-soluble protein abundance,concentration: 0.5mM,1.06 ± 0.12
UniProt Q9Y4P8 and related entries,NP40-soluble protein abundance,concentration: 0.1mM,1.04 ± 0.093
same,NP40-soluble protein abundance,concentration: 0.5mM,1 ± 0.019
SAMM50 (UniProt Q9Y512),NP40-soluble protein abundance,concentration: 0.1mM,1.04 ± 0.078
same,NP40-soluble protein abundance,concentration: 0.5mM,1 ± 0.013
SRPRB (UniProt Q9Y5M8),NP40-soluble protein abundance,concentration: 0.1mM,1.01 ± 0.034
same,NP40-soluble protein abundance,concentration: 0.5mM,1.05 ± 0.043
R4GMR5 and related entries (UniProt P48556),NP40-soluble protein abundance,concentration: 0.1mM,0.909 ± 0.044
same,NP40-soluble protein abundance,concentration: 0.5mM,0.87 ± 0.069
SEC23IP (UniProt Q9Y6Y8),NP40-soluble protein abundance,concentration: 0.1mM,0.994 ± 0.041
same,NP40-soluble protein abundance,concentration: 0.5mM,1.02 ± 0.061
UniProt Q9Y2X9 and related entries,NP40-soluble protein abundance,concentration: 0.1mM,1 ± 0.12
same,NP40-soluble protein abundance,concentration: 0.5mM,0.978 ± 0.041
SNX8 (UniProt Q9Y5X2),NP40-soluble protein abundance,concentration: 0.1mM,0.997 ± 0.049
same,NP40-soluble protein abundance,concentration: 0.5mM,0.984 ± 0.033
UniProt Q9Y6M9 and related entries,NP40-soluble protein abundance,concentration: 0.1mM,0.929 ± 0.043
same,NP40-soluble protein abundance,concentration: 0.5mM,0.893 ± 0.072
UniProt Q9Y5W8 and related entries,NP40-soluble protein abundance,concentration: 0.1mM,1.04 ± 0.11
same,NP40-soluble protein abundance,concentration: 0.5mM,1.01 ± 0.092
SH3BP1 (UniProt Q9Y3L3),NP40-soluble protein abundance,concentration: 0.1mM,0.987 ± 0.05
same,NP40-soluble protein abundance,concentration: 0.5mM,0.987 ± 0.059
POFUT2 (UniProt Q9Y2G5),NP40-soluble protein abundance,concentration: 0.1mM,1.03 ± 0.062
same,NP40-soluble protein abundance,concentration: 0.5mM,1.01 ± 0.025
same,NP40-soluble protein abundance,concentration: 1mM,1 ± 0.037
same,NP40-soluble protein abundance,concentration: 2mM,1.04 ± 0.019
same,NP40-soluble protein abundance,concentration: 4mM,1.01 ± 0.012
same,NP40-soluble protein abundance,concentration: 6mM,1.02 ± 0.04
same,NP40-soluble protein abundance,concentration: 8mM,0.955 ± 0.029
same,NP40-soluble protein abundance,concentration: 10mM,0.975 ± 0.017
UniProt Q9Y5V0,NP40-soluble protein abundance,concentration: 0.1mM,0.983 ± 0.071
same,NP40-soluble protein abundance,concentration: 0.5mM,1.04 ± 0.15
UniProt Q9Y3E7 and related entries,NP40-soluble protein abundance,concentration: 0.1mM,1.07 ± 0.14
same,NP40-soluble protein abundance,concentration: 0.5mM,1.2 ± 0.075
UniProt Q9Y5T5-2,NP40-soluble protein abundance,concentration: 0.1mM,1.04 ± 0.0063
same,NP40-soluble protein abundance,concentration: 0.5mM,1.06 ± 0.051
same,NP40-soluble protein abundance,concentration: 1mM,1.08 ± 0.067
same,NP40-soluble protein abundance,concentration: 2mM,1.11 ± 0.032
same,NP40-soluble protein abundance,concentration: 4mM,1.19 ± 0.014
same,NP40-soluble protein abundance,concentration: 6mM,1.33 ± 0.045
same,NP40-soluble protein abundance,concentration: 8mM,1.351 ± 0.012
same,NP40-soluble protein abundance,concentration: 10mM,1.41 ± 0.028
UniProt Q9Y639 and related entries,NP40-soluble protein abundance,concentration: 0.1mM,0.894 ± 0.12
same,NP40-soluble protein abundance,concentration: 0.5mM,0.833 ± 0.13
same,NP40-soluble protein abundance,concentration: 1mM,0.919 ± 0.11
same,NP40-soluble protein abundance,concentration: 2mM,0.888 ± 0.06
same,NP40-soluble protein abundance,concentration: 4mM,0.938 ± 0.1
same,NP40-soluble protein abundance,concentration: 6mM,0.926 ± 0.084
same,NP40-soluble protein abundance,concentration: 8mM,0.896 ± 0.061
same,NP40-soluble protein abundance,concentration: 10mM,0.851 ± 0.11
UniProt Q9Y2Q0 and related entries,NP40-soluble protein abundance,concentration: 0.1mM,1.01 ± 0.061
same,NP40-soluble protein abundance,concentration: 0.5mM,1.02 ± 0.015
UniProt Q9Y3I0,NP40-soluble protein abundance,concentration: 0.1mM,1.02 ± 0.061
same,NP40-soluble protein abundance,concentration: 0.5mM,1.03 ± 0.068
same,NP40-soluble protein abundance,concentration: 1mM,0.997 ± 0.038
same,NP40-soluble protein abundance,concentration: 2mM,0.974 ± 0.025
same,NP40-soluble protein abundance,concentration: 4mM,0.979 ± 0.043
same,NP40-soluble protein abundance,concentration: 6mM,1.04 ± 0.04
same,NP40-soluble protein abundance,concentration: 8mM,1.02 ± 0.048
same,NP40-soluble protein abundance,concentration: 10mM,1.02 ± 0.048

# Reformatted: entries from further up
target	measurement	setting	value
POFUT2 (UniProt Q9Y2G5)	NP40-soluble protein abundance	concentration: 2mM	1.04 ± 0.019
same	NP40-soluble protein abundance	concentration: 4mM	1.01 ± 0.012
same	NP40-soluble protein abundance	concentration: 6mM	1.02 ± 0.04
same	NP40-soluble protein abundance	concentration: 8mM	0.955 ± 0.029
same	NP40-soluble protein abundance	concentration: 10mM	0.975 ± 0.017

# Two records drawn at random from those above, as already listed:
target,measurement,setting,value
UniProt Q9Y5T5-2,NP40-soluble protein abundance,concentration: 6mM,1.33 ± 0.045
UniProt Q9Y639 and related entries,NP40-soluble protein abundance,concentration: 6mM,0.926 ± 0.084
